According to the supplement of paper PMC10849652:
The other results are listed elsewhere or left out. Residues, ends and D or L forms follow the SMILES beside them. *: point of attachment. Cbz = O=C(OCc1ccccc1)*

The chains behind the UniProt entries cited, without tags or fusion partners. Where a name states a change or a piece, a line headed by the entry shows the natural chain unless it says otherwise.
UniProt Q9Y6R4: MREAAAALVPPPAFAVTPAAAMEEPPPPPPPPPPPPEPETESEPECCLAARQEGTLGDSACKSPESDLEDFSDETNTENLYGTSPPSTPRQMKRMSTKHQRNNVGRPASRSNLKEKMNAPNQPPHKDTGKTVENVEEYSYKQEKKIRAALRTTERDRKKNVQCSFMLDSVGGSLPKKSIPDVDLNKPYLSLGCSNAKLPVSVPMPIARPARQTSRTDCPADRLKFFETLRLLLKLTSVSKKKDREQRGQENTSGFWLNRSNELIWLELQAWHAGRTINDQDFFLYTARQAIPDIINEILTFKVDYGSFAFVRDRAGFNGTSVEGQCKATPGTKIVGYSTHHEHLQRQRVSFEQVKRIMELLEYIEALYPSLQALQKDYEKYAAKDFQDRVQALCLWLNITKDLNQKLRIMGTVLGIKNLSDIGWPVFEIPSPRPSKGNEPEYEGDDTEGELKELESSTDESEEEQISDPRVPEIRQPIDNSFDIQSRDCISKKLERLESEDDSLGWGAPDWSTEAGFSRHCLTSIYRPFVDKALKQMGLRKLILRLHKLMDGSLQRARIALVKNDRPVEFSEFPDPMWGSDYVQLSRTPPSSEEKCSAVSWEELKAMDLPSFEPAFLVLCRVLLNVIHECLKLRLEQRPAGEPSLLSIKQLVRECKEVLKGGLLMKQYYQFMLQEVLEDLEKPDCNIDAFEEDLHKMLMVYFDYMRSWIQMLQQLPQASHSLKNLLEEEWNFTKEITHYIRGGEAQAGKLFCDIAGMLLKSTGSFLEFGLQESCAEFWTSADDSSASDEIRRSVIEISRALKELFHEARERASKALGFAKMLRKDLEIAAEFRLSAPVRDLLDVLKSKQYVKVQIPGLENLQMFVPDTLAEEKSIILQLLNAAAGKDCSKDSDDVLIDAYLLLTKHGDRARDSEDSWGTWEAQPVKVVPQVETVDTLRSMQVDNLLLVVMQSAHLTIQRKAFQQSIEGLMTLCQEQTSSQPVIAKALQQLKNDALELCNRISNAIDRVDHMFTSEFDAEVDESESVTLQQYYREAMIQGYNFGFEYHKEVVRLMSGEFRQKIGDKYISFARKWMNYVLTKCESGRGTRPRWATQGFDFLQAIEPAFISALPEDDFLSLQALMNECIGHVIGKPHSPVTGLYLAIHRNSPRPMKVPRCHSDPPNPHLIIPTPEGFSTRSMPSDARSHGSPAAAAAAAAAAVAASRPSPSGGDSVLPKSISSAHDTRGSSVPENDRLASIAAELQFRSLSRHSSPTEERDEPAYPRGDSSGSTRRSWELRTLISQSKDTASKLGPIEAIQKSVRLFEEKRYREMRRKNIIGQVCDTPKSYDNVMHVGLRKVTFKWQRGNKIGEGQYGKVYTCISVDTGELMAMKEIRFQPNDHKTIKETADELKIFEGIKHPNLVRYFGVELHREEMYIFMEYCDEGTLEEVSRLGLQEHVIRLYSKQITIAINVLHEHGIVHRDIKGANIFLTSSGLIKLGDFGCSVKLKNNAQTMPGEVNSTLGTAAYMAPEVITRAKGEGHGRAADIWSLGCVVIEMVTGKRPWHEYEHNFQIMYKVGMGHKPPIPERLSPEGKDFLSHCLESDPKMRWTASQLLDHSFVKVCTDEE
UniProt Q96A72, whole entry, looked up: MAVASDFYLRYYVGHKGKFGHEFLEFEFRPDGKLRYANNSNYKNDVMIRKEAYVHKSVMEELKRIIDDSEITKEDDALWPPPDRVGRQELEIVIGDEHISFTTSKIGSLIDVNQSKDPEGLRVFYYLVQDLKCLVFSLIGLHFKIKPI
UniProt Q9UBF1: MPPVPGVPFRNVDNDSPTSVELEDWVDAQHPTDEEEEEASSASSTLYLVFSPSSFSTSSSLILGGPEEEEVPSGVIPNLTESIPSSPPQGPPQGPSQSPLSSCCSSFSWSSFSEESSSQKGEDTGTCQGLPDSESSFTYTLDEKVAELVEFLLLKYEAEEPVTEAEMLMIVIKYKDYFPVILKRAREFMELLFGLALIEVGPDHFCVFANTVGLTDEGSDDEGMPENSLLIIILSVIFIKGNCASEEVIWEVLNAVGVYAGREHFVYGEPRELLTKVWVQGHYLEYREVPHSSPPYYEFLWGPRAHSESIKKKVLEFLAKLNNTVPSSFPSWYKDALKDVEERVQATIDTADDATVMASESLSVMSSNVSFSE
UniProt Q9Y4K4: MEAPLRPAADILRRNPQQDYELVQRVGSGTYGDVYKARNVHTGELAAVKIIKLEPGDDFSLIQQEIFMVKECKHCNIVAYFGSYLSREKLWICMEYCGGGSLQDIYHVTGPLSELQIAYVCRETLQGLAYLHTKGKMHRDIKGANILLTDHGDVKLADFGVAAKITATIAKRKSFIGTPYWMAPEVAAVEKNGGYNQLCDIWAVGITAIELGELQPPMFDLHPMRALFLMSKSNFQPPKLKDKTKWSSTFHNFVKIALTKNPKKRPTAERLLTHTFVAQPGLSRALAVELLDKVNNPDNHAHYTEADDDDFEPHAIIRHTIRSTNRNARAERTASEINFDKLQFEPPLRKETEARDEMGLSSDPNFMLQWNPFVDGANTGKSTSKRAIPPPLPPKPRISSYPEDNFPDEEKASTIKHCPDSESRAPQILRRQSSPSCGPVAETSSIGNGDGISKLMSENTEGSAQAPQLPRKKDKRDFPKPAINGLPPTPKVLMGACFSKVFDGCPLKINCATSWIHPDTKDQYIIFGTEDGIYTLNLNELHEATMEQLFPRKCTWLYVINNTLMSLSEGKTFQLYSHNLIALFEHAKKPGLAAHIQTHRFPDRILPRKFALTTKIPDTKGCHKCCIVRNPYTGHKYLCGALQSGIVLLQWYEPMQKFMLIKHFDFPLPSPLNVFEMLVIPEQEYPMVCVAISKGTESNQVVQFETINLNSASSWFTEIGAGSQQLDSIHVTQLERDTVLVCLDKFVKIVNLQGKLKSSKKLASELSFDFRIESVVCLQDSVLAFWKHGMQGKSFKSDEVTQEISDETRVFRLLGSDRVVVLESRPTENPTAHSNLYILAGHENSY
UniProt Q9NQ29: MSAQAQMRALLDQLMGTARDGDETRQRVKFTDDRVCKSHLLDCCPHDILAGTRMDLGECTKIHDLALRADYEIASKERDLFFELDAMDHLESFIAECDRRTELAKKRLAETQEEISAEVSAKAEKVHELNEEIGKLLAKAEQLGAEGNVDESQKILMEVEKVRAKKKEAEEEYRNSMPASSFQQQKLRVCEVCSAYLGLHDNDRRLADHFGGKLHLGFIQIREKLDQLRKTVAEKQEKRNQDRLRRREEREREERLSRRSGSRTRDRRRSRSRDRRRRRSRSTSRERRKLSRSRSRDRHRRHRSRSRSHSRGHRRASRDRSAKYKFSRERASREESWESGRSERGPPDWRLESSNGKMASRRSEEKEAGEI
UniProt Q8IW41: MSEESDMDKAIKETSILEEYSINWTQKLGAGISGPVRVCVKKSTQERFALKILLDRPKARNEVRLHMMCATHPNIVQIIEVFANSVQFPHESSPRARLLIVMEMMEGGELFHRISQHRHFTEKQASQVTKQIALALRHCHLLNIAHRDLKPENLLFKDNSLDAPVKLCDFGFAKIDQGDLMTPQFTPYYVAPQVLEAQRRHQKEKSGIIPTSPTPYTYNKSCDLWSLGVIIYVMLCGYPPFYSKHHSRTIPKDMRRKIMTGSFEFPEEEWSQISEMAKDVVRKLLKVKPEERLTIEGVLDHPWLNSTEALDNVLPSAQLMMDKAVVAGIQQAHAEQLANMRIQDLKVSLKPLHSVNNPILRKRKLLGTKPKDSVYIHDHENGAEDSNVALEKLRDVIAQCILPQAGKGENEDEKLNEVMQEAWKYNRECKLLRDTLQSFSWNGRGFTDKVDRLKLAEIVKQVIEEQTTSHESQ
UniProt O95372: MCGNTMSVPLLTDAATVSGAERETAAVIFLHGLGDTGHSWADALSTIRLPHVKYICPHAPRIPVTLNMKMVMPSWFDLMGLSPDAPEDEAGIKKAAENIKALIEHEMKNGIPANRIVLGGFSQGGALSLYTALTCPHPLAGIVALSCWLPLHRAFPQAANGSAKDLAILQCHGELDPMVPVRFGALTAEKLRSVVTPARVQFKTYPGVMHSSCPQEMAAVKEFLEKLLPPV
UniProt P29966: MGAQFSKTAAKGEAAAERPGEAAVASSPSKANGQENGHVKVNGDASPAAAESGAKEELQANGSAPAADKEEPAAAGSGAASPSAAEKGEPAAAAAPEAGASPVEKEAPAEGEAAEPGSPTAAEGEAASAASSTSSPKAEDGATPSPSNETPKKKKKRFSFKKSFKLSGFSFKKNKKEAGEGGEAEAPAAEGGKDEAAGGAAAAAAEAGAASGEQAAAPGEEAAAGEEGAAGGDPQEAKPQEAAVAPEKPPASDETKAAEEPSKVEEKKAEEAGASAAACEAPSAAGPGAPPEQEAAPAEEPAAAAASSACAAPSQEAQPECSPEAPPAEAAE
UniProt Q96GA3: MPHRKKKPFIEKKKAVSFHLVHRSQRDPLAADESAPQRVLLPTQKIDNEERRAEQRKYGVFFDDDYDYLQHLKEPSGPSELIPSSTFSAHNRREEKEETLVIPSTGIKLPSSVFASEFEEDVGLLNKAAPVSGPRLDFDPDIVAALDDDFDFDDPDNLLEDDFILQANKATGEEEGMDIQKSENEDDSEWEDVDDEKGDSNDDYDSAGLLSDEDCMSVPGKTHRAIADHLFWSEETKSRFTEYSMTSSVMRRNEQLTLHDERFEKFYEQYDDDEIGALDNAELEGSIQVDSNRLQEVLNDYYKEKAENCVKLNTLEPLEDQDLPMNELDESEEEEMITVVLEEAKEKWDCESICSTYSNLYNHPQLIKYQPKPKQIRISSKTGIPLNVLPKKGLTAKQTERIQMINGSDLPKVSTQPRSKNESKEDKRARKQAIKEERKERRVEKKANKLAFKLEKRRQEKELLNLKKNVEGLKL
UniProt Q32MZ4: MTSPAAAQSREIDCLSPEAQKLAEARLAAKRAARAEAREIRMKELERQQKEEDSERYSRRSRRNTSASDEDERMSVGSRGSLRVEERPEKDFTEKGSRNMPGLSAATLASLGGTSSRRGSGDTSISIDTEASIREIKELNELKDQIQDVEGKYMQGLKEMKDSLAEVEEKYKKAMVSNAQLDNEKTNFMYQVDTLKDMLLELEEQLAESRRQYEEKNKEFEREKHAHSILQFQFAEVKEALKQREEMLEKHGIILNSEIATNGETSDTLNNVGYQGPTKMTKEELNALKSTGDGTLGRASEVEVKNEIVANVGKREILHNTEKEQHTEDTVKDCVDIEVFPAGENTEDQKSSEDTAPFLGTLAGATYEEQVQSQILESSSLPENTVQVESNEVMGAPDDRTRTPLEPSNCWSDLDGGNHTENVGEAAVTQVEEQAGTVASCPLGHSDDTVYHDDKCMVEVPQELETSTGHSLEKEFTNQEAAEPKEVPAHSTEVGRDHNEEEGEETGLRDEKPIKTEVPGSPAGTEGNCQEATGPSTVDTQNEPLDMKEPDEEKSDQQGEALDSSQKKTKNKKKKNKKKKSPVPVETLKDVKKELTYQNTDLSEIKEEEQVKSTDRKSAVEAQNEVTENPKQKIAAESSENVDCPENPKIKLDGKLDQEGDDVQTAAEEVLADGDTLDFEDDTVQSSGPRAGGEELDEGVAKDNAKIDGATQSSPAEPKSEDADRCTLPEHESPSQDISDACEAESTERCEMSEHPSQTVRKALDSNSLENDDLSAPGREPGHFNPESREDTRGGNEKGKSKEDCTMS
UniProt P56192: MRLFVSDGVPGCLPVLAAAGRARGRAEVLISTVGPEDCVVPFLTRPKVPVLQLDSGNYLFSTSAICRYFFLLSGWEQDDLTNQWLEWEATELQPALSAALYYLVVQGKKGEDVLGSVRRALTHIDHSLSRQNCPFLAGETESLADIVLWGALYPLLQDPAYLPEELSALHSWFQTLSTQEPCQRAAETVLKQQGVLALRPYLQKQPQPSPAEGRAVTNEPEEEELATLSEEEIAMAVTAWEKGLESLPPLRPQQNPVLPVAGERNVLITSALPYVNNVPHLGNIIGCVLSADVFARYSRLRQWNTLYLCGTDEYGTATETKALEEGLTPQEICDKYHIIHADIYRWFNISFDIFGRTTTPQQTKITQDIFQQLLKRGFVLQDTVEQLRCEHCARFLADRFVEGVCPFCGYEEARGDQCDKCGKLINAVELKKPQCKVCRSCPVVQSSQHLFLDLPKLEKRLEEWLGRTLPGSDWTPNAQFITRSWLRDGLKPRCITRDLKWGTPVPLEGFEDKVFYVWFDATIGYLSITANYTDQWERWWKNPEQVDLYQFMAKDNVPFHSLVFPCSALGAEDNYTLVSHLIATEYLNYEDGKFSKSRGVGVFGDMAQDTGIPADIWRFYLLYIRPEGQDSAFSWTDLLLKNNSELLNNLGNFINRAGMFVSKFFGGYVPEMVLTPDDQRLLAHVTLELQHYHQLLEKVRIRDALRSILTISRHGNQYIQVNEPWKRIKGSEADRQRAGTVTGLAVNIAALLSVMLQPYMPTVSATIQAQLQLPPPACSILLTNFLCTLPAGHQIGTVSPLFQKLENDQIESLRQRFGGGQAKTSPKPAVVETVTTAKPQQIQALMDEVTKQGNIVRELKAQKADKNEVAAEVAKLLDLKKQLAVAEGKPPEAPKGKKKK

Key:
Assay in all cases: log2 fold change, soluble protein after heating vs DMSO (PISA); higher = thermal stabilisation; K562 cells, 10 uM, 30 min; active = over 0.2 and 3.5 SD of the protein, either way, in both replicates (recomputed)
IRAK-1-4 Inhibitor I = compound: C1COCCN1CCN2C3=CC=CC=C3N=C2NC(=O)C4=CC(=CC=C4)[N+](=O)[O-] [IRAK-1-4 Inhibitor I]
Outline: (§1)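 Soluble protein was quantified by TMTpro 16plex LC-MS/MS after channel sums were equalised. It was obtained as the supernatant after 21,000xg for 90 min from pooled aliquots of K562 cells (2×10^6 cells/mL, 10 μM compound, 30 min) heated for 3 min across 48°C-58°C and extracted in PBS with 0.5% NP-40 at 4°C. Thermal stability values are relative to control samples and come from duplicates. They are given as log2 fold changes.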

ibrutinib = compound: C=CC(=O)N1CCC[C@@H](n2nc(-c3ccc(Oc4ccccc4)cc3)c3c(N)ncnc32)C1 [ibrutinib]
Outline: as §1

[1] = compound: CC(=O)c1cnc2ccc(-c3cc(Cl)c(O)c(Cl)c3)nc2c1N[C@H]1CC[C@H](CN(C)C)CC1
Outline: as §1

ralimetinib = compound: CC(C)(C)Cn1c(N)nc2ccc(-c3[nH]c(C(C)(C)C)nc3-c3ccc(F)cc3)nc21 [ralimetinib]
Outline: as §1

[2] = compound: CC(C)(O)CC(=O)NCCn1ccc2ncnc(Nc3ccc(Oc4cccc(C(F)(F)F)c4)c(Cl)c3)c21
Outline: as §1

[3] = compound: CC(C)C1=C2N=C(C=C(N2N=C1)NCC3=CC=CC=C3)NCCCCCCN
Outline: as §1

[4] = compound: CC(C)C[C@@H](C=O)NC(=O)[C@H](CC(C)C)NC(=O)[C@H](CC(C)C)NC(=O)OCc1ccccc1
Outline: as §1

pinometostat = compound: CC(C)N(C[C@H]1O[C@@H](n2cnc3c(N)ncnc32)[C@H](O)[C@@H]1O)[C@H]1C[C@@H](CCc2nc3cc(C(C)(C)C)ccc3[nH]2)C1 [pinometostat]
Outline: as §1

[5] = compound: CC1=C(C2=C(C=C1)C(=O)C3=CC=CC=C3N2CCCN)C
Outline: as §1

[6] = compound: CC1=C(C=C(C=C1)NC(=O)C2=CC(=CC=C2)C(C)(C)C#N)NC3=CC4=C(C=C3)N=CN(C4=O)C
Outline: as §1

[7] = compound: CC1=C(C=C(C=C1)NC(=O)C2=CC(=CC=C2)N(C)C)NC(=O)C3=CC=C(C=C3)O
Outline: as §1

[8] = compound: CC1=CC=C(C=C1)SC2=C3C=C(SC3=CN=C2)C(=O)N
Outline: as §1

[9] = compound: CC1=NC(=CC=C1)C2=C(N=C(N2)C(C)(C)C)C3=CC4=NC=CN=C4C=C3
Outline: as §1

Nexturastat A = compound: CCCCN(Cc1ccc(C(=O)NO)cc1)C(=O)Nc1ccccc1 [Nexturastat A]
Outline: as §1

vemurafenib = compound: CCCS(=O)(=O)Nc1ccc(F)c(C(=O)c2c[nH]c3ncc(-c4ccc(Cl)cc4)cc23)c1F [vemurafenib]
Outline: as §1

[10] = compound: CCCS(=O)(=O)Nc1ccc(F)c(C(=O)c2c[nH]c3ncc(Cl)cc23)c1F
Outline: as §1

[11] = compound: CCCc1cc(C)[nH]c(=O)c1CNC(=O)c1cc(-c2ccnc(N3CCN(C)CC3)c2)cc2c1cnn2C(C)C
Outline: as §1

givinostat = compound: CCN(CC)Cc1ccc2cc(COC(=O)Nc3ccc(C(=O)NO)cc3)ccc2c1 [givinostat]
Outline: as §1

barasertib = compound: CCN(CCCOc1ccc2c(Nc3cc(CC(=O)Nc4cccc(F)c4)[nH]n3)ncnc2c1)CCOP(=O)(O)O [barasertib]
Outline: as §1

[12] = compound: CC1=C(C(CC(=O)N1)C2=CC=C(C=C2)C(F)(F)F)C(=O)NC3=C(C=C4C(=C3)C=NN4)F
Outline: as §1

Measured: log2 fold change

MAP2K2 (UniProt P36507)
active: [1] -0.496
inactive: IRAK-1-4 Inhibitor I 0.045 | ibrutinib 0.012 | ralimetinib 0.105 | [2] -0.065 | [3] -0.02 | [4] 0.056 | pinometostat 0.003 | [5] -0.001 | [6] -0.018 | [7] 0.013 | [8] 0.009 | [9] 0.028 | Nexturastat A -0.001 | vemurafenib -0.008 | [10] -0.002 | [11] 0.17 | givinostat 0.014 | barasertib 0.011

MAP3K4 isoform 2 (UniProt Q9Y6R4)
inactive: IRAK-1-4 Inhibitor I 0.049 | ibrutinib 0 | [1] 0.198 | ralimetinib 0.007 | [2] -0.014 | [3] -0.027 | [4] -0.023 | pinometostat 0.014 | [5] 0.002 | [6] -0.012 | [7] 0.026 | [8] -0.018 | [9] -0.003 | Nexturastat A 0.008 | vemurafenib -0.033 | [10] -0.001 | [11] -0.012 | givinostat -0.015 | barasertib 0.02

LUC7L2 (UniProt Q9Y383)
inactive: IRAK-1-4 Inhibitor I -0.207 | ibrutinib -0.026 | ralimetinib 0.111 | [2] 0.031 | [3] -0.134 | [4] -0.04 | pinometostat -0.048 | [5] -0.037 | [6] 0.016 | [7] -0.011 | [8] 0.006 | [9] 0.089 | Nexturastat A -0.036 | vemurafenib 0.012 | [10] 0.047 | [11] 0.015 | givinostat -0.01 | barasertib 0
active: [1] -0.646

MAGOHB (UniProt Q96A72)
inactive: IRAK-1-4 Inhibitor I -0.031 | ibrutinib 0.004 | [1] 0.25 | ralimetinib -0.094 | [2] 0.015 | [3] 0.061 | [4] 0 | pinometostat -0.022 | [5] 0.028 | [6] -0.002 | [7] -0.062 | [8] 0.008 | [9] 0.067 | Nexturastat A -0.026 | vemurafenib 0.037 | [10] 0.04 | [11] -0.069 | givinostat 0.003 | barasertib 0.007

MAGEC2 (UniProt Q9UBF1)
active: [5] -0.318
inactive: IRAK-1-4 Inhibitor I -0.003 | ibrutinib -0.02 | [1] 0.108 | ralimetinib 0.093 | [2] 0.058 | [3] -0.059 | [4] 0.05 | pinometostat -0.003 | [6] 0.017 | [7] 0.045 | [8] -0.046 | [9] 0.057 | Nexturastat A 0 | vemurafenib 0.035 | [10] 0.04 | [11] 0.005 | givinostat -0.013 | barasertib -0.005

MAP2K1 (UniProt Q02750)
inactive: IRAK-1-4 Inhibitor I 0.047 | ibrutinib -0.016 | ralimetinib 0.004 | [2] -0.066 | [3] 0.023 | [4] 0.015 | pinometostat -0.061 | [5] 0.026 | [6] -0.013 | [7] 0.001 | [8] 0.029 | [9] 0.049 | Nexturastat A -0.061 | vemurafenib -0.009 | [10] 0.018 | [11] 0.129 | givinostat 0.007 | barasertib 0.005
active: [1] -0.349

MAP4K5 (UniProt Q9Y4K4)
inactive: IRAK-1-4 Inhibitor I -0.02 | ibrutinib 0.067 | ralimetinib -0.045 | [2] -0.057 | [3] -0.034 | [4] 0.034 | pinometostat -0.014 | [5] -0.02 | [6] 0.01 | [7] 0.082 | [8] 0.025 | [9] -0.012 | Nexturastat A -0.042 | vemurafenib -0.025 | [10] -0.008 | [11] -0.047 | givinostat -0.024 | barasertib 0.1
active: [1] -0.289

LUC7L (UniProt Q9NQ29)
inactive: IRAK-1-4 Inhibitor I -0.098 | ibrutinib 0.027 | [1] -0.137 | ralimetinib 0.009 | [2] 0.08 | [3] -0.007 | [4] 0.021 | pinometostat 0.101 | [5] -0.056 | [6] 0.028 | [7] 0.003 | [8] -0.022 | [9] -0.021 | Nexturastat A 0.054 | vemurafenib -0.007 | [10] -0.004 | [11] 0.027 | givinostat -0.034 | barasertib -0.01

MAPKAPK5 (UniProt Q8IW41)
inactive: IRAK-1-4 Inhibitor I 0.029 | ibrutinib -0.003 | [1] 0.052 | ralimetinib 0.029 | [2] -0.139 | [3] 0.218 | [4] 0.055 | pinometostat -0.042 | [5] 0.002 | [6] 0.004 | [7] -0.02 | [8] -0.015 | [9] 0.013 | Nexturastat A 0.003 | vemurafenib 0.028 | [10] 0.11 | [11] 0.038 | givinostat 0.225 | barasertib -0.03

LYPLA2 (UniProt O95372)
inactive: IRAK-1-4 Inhibitor I 0.062 | ibrutinib 0.003 | [1] -0.134 | ralimetinib -0.036 | [2] -0.106 | [3] -0.04 | [4] -0.056 | pinometostat -0.067 | [5] 0.197 | [6] 0.043 | [7] -0.131 | [8] 0.082 | [9] -0.056 | Nexturastat A -0.071 | vemurafenib 0.132 | [10] 0.038 | [11] -0.001 | givinostat -0.055 | barasertib -0.099

MAGI1 (UniProt Q96QZ7)
inactive: IRAK-1-4 Inhibitor I 0 | ibrutinib 0.057 | [1] -0.071 | ralimetinib 0.014 | [2] 0.032 | [3] -0.009 | [4] 0.01 | pinometostat 0.025 | [5] 0.07 | [6] 0.041 | [7] 0.041 | [8] -0.027 | [9] -0.023 | Nexturastat A 0.074 | vemurafenib 0.018 | [10] -0.009 | [11] -0.026 | givinostat -0.013 | barasertib -0.008

MAP3K20 (UniProt Q9NYL2)
inactive: IRAK-1-4 Inhibitor I -0.043 | ibrutinib -0.167 | ralimetinib 0.019 | [2] -0.032 | [3] 0.034 | [4] 0.052 | pinometostat 0.099 | [5] 0.027 | [7] -0.098 | [8] -0.014 | [9] 0.03 | Nexturastat A 0.062 | vemurafenib -0.254 | [10] -0.163 | [11] 0.022 | givinostat -0.089 | barasertib -0.02
active: [1] -0.654 | [6] -0.448

2 entries picked at random from the list so far, as already listed:
MAGI1 (UniProt Q96QZ7)
inactive: IRAK-1-4 Inhibitor I 0 | ibrutinib 0.057 | [1] -0.071 | ralimetinib 0.014 | [2] 0.032 | [3] -0.009 | [4] 0.01 | pinometostat 0.025 | [5] 0.07 | [6] 0.041 | [7] 0.041 | [8] -0.027 | [9] -0.023 | Nexturastat A 0.074 | vemurafenib 0.018 | [10] -0.009 | [11] -0.026 | givinostat -0.013 | barasertib -0.008

LUC7L (UniProt Q9NQ29)
inactive: IRAK-1-4 Inhibitor I -0.098 | ibrutinib 0.027 | [1] -0.137 | ralimetinib 0.009 | [2] 0.08 | [3] -0.007 | [4] 0.021 | pinometostat 0.101 | [5] -0.056 | [6] 0.028 | [7] 0.003 | [8] -0.022 | [9] -0.021 | Nexturastat A 0.054 | vemurafenib -0.007 | [10] -0.004 | [11] 0.027 | givinostat -0.034 | barasertib -0.01

(cont.)

MARCKS (UniProt P29966)
inactive: IRAK-1-4 Inhibitor I -0.077 | ibrutinib 0.071 | [1] 0.014 | ralimetinib 0.025 | [2] -0.099 | [3] 0.039 | [4] 0.134 | pinometostat -0.109 | [5] 0.002 | [6] -0.001 | [7] -0.066 | [8] 0.01 | [9] 0.072 | Nexturastat A -0.104 | vemurafenib 0.047 | [10] -0.004 | [11] 0.252 | givinostat -0.096 | barasertib 0.005

LTV1 (UniProt Q96GA3)
active: [5] -0.726
inactive: IRAK-1-4 Inhibitor I -0.101 | ibrutinib -0.009 | [1] 0.224 | ralimetinib 0.134 | [2] 0.001 | [3] -0.233 | [4] 0.104 | pinometostat 0.249 | [6] 0.044 | [7] -0.04 | [8] -0.04 | [9] -0.035 | Nexturastat A 0.248 | vemurafenib -0.075 | [10] -0.008 | [11] -0.011 | givinostat -0.025 | barasertib -0.075

LRRFIP1 (UniProt Q32MZ4)
inactive: IRAK-1-4 Inhibitor I 0.014 | ibrutinib 0.019 | [1] 0.027 | ralimetinib -0.003 | [2] 0.063 | [3] 0.084 | [4] 0.011 | pinometostat 0 | [5] -0.043 | [6] -0.024 | [7] 0.003 | [8] -0.012 | [9] -0.01 | Nexturastat A 0.005 | vemurafenib -0.019 | [10] -0.027 | [11] -0.002 | givinostat 0.014 | barasertib 0.004

MARS (UniProt P56192)
inactive: IRAK-1-4 Inhibitor I -0.016 | ibrutinib 0.005 | [1] 0.033 | ralimetinib 0.088 | [2] 0 | [3] -0.079 | [4] 0.044 | pinometostat 0.116 | [12] 0.008 | [5] -0.017 | [6] 0.027 | [7] 0 | [8] -0.011 | [9] -0.015 | Nexturastat A 0.117 | vemurafenib -0.003 | [10] 0.02 | [11] 0.042 | givinostat 0.038 | barasertib -0.014

MAGEA9 (UniProt P43362)
active: [5] -0.49
inactive: IRAK-1-4 Inhibitor I 0.008 | ibrutinib -0.094 | [1] 0.101 | ralimetinib 0 | [2] 0.031 | [3] -0.256 | [4] 0.087 | pinometostat 0.009 | [6] -0.033 | [7] 0.05 | [8] -0.005 | [9] -0.087 | Nexturastat A 0.005 | vemurafenib -0.031 | [10] 0.072 | [11] 0.054 | givinostat 0.066 | barasertib 0.036
